Assay results reported in the supplement of paper PMC6411743.
± gives the standard deviation of the averaged measurements. Some of the results follow.

Amino acid sequences for entries named in this document (tags omitted). A change or cut given only in a name is not applied to a line headed by its entry.
UniProt Q6UWP2: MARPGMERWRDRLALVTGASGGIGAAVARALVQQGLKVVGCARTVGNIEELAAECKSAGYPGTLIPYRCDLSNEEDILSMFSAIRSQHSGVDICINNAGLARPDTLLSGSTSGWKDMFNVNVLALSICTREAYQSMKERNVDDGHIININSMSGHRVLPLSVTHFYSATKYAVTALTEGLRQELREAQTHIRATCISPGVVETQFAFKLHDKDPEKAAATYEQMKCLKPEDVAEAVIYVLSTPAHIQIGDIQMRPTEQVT
UniProt Q6WKZ4: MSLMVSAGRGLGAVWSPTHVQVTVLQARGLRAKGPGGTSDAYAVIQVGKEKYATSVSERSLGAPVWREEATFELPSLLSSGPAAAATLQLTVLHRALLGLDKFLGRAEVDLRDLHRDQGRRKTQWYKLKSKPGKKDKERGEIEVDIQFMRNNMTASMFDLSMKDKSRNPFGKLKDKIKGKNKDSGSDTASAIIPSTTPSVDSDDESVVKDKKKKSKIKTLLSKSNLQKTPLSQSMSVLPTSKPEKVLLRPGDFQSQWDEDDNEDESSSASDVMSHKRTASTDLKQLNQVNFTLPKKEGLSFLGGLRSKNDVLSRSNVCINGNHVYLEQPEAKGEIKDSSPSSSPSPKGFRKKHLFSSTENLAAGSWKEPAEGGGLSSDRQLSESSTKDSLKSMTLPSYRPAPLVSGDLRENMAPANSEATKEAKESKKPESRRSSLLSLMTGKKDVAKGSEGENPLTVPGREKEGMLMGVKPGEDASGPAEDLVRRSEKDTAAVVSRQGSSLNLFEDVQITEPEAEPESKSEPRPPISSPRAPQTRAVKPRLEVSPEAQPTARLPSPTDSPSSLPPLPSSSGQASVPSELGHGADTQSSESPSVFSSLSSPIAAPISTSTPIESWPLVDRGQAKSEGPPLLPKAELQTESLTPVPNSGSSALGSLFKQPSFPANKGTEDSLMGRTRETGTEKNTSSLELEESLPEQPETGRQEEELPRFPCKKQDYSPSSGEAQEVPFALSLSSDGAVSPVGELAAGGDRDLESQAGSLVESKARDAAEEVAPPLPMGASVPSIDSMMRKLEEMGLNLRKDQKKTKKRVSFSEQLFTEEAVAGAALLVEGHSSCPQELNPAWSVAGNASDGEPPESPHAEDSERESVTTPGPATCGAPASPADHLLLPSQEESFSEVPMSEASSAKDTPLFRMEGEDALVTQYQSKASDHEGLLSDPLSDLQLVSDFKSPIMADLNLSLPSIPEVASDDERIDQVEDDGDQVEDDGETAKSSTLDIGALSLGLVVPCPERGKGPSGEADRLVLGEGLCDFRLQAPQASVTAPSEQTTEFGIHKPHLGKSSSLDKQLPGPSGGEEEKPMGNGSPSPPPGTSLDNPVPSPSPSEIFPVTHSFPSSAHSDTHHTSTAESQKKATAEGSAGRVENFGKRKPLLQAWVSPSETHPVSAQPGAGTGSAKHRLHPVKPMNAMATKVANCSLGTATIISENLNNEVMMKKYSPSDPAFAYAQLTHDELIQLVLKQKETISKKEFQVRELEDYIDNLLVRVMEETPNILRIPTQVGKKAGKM
UniProt Q6NW34: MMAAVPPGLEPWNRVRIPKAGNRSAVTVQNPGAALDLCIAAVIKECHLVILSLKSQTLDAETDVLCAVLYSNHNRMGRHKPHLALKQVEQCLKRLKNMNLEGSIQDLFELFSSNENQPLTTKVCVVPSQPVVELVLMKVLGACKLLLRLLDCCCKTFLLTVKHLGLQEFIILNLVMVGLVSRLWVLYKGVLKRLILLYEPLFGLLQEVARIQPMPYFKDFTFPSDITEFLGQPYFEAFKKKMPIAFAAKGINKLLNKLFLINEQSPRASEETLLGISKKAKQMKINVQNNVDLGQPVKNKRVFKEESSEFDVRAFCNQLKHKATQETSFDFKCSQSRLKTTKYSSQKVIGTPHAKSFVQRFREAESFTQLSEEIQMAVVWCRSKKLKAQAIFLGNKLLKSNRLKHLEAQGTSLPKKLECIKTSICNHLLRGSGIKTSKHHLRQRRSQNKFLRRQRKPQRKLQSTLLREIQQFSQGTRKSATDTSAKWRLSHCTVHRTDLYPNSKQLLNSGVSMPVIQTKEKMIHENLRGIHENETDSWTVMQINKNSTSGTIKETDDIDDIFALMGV
UniProt Q66K74: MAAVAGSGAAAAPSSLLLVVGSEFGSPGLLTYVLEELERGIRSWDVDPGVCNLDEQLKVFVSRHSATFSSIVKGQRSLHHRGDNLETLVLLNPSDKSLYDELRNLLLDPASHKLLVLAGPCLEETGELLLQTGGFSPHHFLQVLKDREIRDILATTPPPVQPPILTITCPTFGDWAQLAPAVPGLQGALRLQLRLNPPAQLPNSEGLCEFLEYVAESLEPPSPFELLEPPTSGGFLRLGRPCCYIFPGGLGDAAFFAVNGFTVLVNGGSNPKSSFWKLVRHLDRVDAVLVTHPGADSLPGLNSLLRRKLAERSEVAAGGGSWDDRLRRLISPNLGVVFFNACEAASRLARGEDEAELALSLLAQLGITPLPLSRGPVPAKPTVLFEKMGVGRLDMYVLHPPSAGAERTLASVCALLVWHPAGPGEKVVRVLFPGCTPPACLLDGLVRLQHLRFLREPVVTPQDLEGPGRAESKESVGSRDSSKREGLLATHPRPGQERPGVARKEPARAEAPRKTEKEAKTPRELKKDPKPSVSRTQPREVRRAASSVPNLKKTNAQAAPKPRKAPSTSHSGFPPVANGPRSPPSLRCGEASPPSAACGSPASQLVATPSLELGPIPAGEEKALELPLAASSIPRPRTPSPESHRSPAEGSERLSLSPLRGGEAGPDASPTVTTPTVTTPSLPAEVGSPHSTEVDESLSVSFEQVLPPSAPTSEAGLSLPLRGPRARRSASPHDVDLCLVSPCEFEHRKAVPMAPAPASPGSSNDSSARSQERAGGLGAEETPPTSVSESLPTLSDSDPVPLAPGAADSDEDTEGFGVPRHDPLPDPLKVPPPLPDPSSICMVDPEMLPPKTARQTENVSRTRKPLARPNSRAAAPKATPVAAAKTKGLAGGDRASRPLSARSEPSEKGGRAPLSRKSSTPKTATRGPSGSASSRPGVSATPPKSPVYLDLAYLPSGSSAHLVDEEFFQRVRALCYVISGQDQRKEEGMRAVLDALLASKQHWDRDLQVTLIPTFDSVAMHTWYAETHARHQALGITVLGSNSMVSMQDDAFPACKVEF
UniProt Q86V88: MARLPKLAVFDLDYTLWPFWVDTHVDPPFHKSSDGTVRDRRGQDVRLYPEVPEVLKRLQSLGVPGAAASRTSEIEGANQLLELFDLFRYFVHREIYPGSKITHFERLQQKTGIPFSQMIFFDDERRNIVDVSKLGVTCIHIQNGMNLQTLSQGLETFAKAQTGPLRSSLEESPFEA
UniProt Q5TZA2: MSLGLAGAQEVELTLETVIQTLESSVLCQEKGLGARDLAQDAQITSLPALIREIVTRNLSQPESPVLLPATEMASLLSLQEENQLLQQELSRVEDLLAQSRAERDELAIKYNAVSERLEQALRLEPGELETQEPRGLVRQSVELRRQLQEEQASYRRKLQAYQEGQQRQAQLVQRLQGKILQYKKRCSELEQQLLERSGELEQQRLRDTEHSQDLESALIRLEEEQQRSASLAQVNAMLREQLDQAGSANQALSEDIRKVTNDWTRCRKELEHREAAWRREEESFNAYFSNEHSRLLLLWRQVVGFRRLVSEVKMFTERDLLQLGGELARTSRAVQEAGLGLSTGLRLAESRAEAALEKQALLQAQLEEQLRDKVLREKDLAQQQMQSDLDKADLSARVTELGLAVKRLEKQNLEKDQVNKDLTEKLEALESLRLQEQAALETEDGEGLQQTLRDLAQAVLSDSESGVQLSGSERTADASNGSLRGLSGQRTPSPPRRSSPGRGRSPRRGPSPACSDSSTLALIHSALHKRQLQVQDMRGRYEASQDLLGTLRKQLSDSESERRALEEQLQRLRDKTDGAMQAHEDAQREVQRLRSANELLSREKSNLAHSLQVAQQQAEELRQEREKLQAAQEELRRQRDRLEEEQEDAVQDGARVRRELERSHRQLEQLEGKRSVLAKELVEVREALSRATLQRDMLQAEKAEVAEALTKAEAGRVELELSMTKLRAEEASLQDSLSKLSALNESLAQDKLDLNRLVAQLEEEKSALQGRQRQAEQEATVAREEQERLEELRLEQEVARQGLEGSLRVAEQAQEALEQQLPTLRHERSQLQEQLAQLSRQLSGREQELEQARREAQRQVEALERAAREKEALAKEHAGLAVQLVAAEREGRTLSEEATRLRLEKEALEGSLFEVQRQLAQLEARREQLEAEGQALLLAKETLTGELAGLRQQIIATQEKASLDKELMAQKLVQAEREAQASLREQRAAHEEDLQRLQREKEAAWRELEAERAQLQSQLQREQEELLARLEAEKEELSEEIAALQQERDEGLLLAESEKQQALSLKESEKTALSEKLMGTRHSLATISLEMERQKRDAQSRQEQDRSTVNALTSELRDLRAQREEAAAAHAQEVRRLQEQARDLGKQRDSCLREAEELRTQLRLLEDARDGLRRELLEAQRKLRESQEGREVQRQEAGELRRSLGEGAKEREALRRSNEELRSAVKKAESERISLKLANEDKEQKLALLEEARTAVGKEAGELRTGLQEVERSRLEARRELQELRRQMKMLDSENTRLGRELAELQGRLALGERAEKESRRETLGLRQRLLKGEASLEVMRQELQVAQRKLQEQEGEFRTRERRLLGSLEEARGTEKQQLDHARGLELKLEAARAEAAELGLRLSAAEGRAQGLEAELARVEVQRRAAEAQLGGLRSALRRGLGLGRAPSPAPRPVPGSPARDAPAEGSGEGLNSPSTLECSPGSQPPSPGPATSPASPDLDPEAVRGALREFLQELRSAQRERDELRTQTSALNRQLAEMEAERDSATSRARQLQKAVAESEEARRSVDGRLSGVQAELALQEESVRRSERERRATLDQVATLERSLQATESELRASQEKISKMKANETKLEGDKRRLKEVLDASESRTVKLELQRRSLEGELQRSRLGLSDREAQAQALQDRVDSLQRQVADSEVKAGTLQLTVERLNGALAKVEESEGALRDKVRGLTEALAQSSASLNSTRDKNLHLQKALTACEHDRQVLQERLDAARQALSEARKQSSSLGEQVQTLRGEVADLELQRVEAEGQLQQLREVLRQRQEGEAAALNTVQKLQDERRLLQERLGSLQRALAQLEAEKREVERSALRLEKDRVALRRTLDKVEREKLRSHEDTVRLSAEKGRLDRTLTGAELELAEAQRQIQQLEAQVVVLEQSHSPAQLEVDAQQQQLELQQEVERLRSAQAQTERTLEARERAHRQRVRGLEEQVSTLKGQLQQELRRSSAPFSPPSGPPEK
UniProt Q7L5D6: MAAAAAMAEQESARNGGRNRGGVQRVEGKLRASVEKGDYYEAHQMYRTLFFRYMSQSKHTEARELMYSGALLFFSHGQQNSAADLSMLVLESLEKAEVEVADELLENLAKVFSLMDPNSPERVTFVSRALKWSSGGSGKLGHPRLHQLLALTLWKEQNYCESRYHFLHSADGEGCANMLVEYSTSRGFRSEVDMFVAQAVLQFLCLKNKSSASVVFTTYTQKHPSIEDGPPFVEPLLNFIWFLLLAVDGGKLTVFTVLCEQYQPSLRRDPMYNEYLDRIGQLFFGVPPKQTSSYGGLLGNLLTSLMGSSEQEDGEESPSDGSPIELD
UniProt Q86UK7: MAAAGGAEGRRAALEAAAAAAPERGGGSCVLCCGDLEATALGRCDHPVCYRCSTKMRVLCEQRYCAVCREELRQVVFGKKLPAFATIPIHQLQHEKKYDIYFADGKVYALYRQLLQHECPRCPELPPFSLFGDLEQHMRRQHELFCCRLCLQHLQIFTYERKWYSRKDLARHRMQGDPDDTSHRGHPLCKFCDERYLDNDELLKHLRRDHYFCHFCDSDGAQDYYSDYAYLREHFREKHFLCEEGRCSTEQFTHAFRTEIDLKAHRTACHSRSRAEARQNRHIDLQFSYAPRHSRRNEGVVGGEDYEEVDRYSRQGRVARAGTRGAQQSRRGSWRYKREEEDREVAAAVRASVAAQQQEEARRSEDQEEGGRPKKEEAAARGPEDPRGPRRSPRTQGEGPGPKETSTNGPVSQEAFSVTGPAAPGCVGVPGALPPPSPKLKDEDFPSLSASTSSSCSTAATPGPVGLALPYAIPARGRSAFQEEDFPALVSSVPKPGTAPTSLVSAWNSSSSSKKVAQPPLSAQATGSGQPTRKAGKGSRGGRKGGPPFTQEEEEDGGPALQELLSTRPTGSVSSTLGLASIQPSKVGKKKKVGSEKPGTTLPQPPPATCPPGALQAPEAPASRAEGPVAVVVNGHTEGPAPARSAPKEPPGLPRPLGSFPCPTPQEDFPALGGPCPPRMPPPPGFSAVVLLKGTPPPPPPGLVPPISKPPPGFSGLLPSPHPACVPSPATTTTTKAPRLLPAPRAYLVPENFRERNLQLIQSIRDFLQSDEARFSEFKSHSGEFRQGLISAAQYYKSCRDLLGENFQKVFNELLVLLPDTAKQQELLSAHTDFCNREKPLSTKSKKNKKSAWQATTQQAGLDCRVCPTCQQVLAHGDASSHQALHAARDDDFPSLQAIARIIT

Compound: Nc1nc2c(ncn2[C@@H]2O[C@H](COP(=O)(O)OP(=O)(O)OP(=O)(O)O)[C@@H](O)[C@H]2O)c(=O)[nH]1 [guanosine triphosphate]
Test: NP40-soluble protein abundance relative to vehicle (solubility fold change) (ratio); higher = more soluble protein in presence of GTP
How it was run: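 Jurkat crude lysate prepared with a Dounce homogeniser was treated at eight concentrations spanning 0.1 to 10 mM, 10 min at room temperature then 3 min at 37 °C. Solubilisation with 0.8% NP40 and benzonase and ultracentrifugation preceded TMT labelling of the supernatant for LC-MS/MS. Fold change against the detergent-processed vehicle was determined per replicate from vsn-normalised intensities, across three independent experiments.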

Target	NP40-soluble protein abundance (concentration: 0.1mM)	NP40-soluble protein abundance (concentration: 0.5mM)	NP40-soluble protein abundance (concentration: 1mM)	NP40-soluble protein abundance (concentration: 2mM)	NP40-soluble protein abundance (concentration: 4mM)	NP40-soluble protein abundance (concentration: 6mM)	NP40-soluble protein abundance (concentration: 8mM)	NP40-soluble protein abundance (concentration: 10mM)
DHRS11 (UniProt Q6UWP2)	0.967 ± 0.1	0.986 ± 0.087	0.964 ± 0.08	0.95 ± 0.034	0.909 ± 0.079	0.995 ± 0.14	0.912 ± 0.098	0.997 ± 0.03
UniProt Q86W42 and related entries	1.21 ± 0.14	1.35 ± 0.28	1.46 ± 0.27	1.87 ± 0.52	2.27 ± 0.61	2.29 ± 0.68	2.26 ± 0.54	2.31 ± 0.65
Q5VWV2 and related entries (UniProt Q8TEW0)	1.02 ± 0.11	1.02 ± 0.084	1.05 ± 0.098	1.07 ± 0.089	1.17 ± 0.14	1.15 ± 0.14	1.2 ± 0.14	1.19 ± 0.1
UniProt Q69YN4	1.04 ± 0.06	1.04 ± 0.037	1.04 ± 0.014	1.052 ± 0.0097	1.07 ± 0.01	1.05 ± 0.034	1.05 ± 0.036	1.02 ± 0.045
GALNT7 (UniProt Q86SF2)	1.05 ± 0.083	1.05 ± 0.059	0.97 ± 0.041	0.975 ± 0.059	0.938 ± 0.051	0.926 ± 0.07	0.913 ± 0.048	0.893 ± 0.07
UniProt Q5UIP0 and related entries	0.993 ± 0.041	1.01 ± 0.042	1.06 ± 0.03	1.05 ± 0.059	1.09 ± 0.067	1.14 ± 0.077	1.21 ± 0.12	1.2 ± 0.17
UHRF1BP1 (UniProt Q6BDS2)	1.04 ± 0.013	0.972 ± 0.065	1.07 ± 0.027	1.05 ± 0.12	1.11 ± 0.12	1.05 ± 0.12	1.02 ± 0.056	1.04 ± 0.06
UniProt Q7Z3D6-2|Q7Z3D6-4|E5RHG2 and related entries	0.999 ± 0.03	1.01 ± 0.093	1.03 ± 0.095	1 ± 0.077	0.943 ± 0.086	0.98 ± 0.1	0.971 ± 0.045	0.997 ± 0.097
UniProt Q6WKZ4 and related entries	1.02 ± 0.049	0.951 ± 0.044	0.946 ± 0.05	0.921 ± 0.056	0.933 ± 0.058	0.901 ± 0.022	0.943 ± 0.057	0.89 ± 0.038
SUPT6H (UniProt Q7KZ85)	1.04 ± 0.014	1.05 ± 0.036	0.99 ± 0.023	0.976 ± 0.04	0.919 ± 0.029	0.886 ± 0.028	0.865 ± 0.037	0.856 ± 0.013
SNRNP48 (UniProt Q6IEG0)	1.08 ± 0.0069	1.14 ± 0.0098	1.21 ± 0.073	1.24 ± 0.1	1.33 ± 0.091	1.34 ± 0.087	1.44 ± 0.13	1.44 ± 0.11
UniProt Q6KCM7 and related entries	1.12 ± 0.041	1.08 ± 0.034	1.06 ± 0.058	1.04 ± 0.016	1.04 ± 0.066	1.019 ± 0.0034	0.982 ± 0.061	0.989 ± 0.098
UniProt Q6NW34 and related entries	0.848 ± 0.051	0.888 ± 0.08	0.881 ± 0.074	0.85 ± 0.031	0.839 ± 0.071	0.929 ± 0.032	0.871 ± 0.059	0.93 ± 0.012
HSDL2 (UniProt Q6YN16)	0.936 ± 0.082	0.954 ± 0.061	0.922 ± 0.06	0.905 ± 0.071	0.889 ± 0.066	0.91 ± 0.079	0.898 ± 0.071	0.883 ± 0.073
UniProt Q66K74 and related entries	0.983 ± 0.02	0.975 ± 0.04	0.949 ± 0.027	0.935 ± 0.043	0.933 ± 0.035	0.933 ± 0.068	0.96 ± 0.026	0.959 ± 0.053
NT5DC1 (UniProt Q5TFE4)	1.06 ± 0.073	1.08 ± 0.1	0.943 ± 0.065	0.934 ± 0.14	0.895 ± 0.097	0.909 ± 0.057	0.881 ± 0.07	0.888 ± 0.089
UniProt Q86V88 and related entries	0.975 ± 0.052	0.901 ± 0.079	0.953 ± 0.11	0.872 ± 0.064	0.869 ± 0.048	0.839 ± 0.089	0.858 ± 0.058	0.88 ± 0.078
CROCC (UniProt Q5TZA2)	1.03 ± 0.035	0.997 ± 0.085	0.972 ± 0.13	0.924 ± 0.06	0.906 ± 0.071	0.947 ± 0.091	0.926 ± 0.12	0.929 ± 0.11
UniProt Q6IQ49 and related entries	0.932 ± 0.016	0.913 ± 0.036	0.932 ± 0.037	0.91 ± 0.059	0.932 ± 0.072	0.957 ± 0.07	0.966 ± 0.037	0.979 ± 0.054
DUS1L (UniProt Q6P1R4)	1.01 ± 0.065	1.03 ± 0.045	1.01 ± 0.03	0.963 ± 0.027	0.961 ± 0.074	0.973 ± 0.05	0.989 ± 0.048	0.949 ± 0.043
USP34 (UniProt Q70CQ2)	1.07 ± 0.075	1.06 ± 0.056	0.983 ± 0.069	1.01 ± 0.094	1.04 ± 0.094	1 ± 0.12	0.987 ± 0.069	0.966 ± 0.073
UniProt Q6Y288	1.04 ± 0.13	1.15 ± 0.032	1.09 ± 0.09	1 ± 0.062	0.969 ± 0.063	1.02 ± 0.062	1.01 ± 0.042	0.983 ± 0.062
PTAR1 (UniProt Q7Z6K3)	0.975 ± 0.23	0.935 ± 0.031	0.866 ± 0.012	0.945 ± 0.089	0.945 ± 0.14	0.824 ± 0.079	0.786 ± 0.074	0.887 ± 0.087
UniProt Q7LBC6	1.04 ± 0.063	1.01 ± 0.049	0.981 ± 0.06	0.99 ± 0.065	0.952 ± 0.039	0.96 ± 0.066	0.992 ± 0.03	0.986 ± 0.053
AHDC1 (UniProt Q5TGY3)	0.984 ± 0.082	1.01 ± 0.14	1.01 ± 0.12	1.06 ± 0.11	1.06 ± 0.063	1.06 ± 0.088	1.08 ± 0.041	1.06 ± 0.11
UniProt Q7L5D6 and related entries	1.03 ± 0.056	0.98 ± 0.091	0.94 ± 0.047	0.975 ± 0.11	0.963 ± 0.12	0.986 ± 0.1	0.868 ± 0.053	0.887 ± 0.12
UniProt Q86UK7 and related entries	1.02 ± 0.037	1.08 ± 0.051	1.05 ± 0.024	1.07 ± 0.034	1.13 ± 0.046	1.16 ± 0.057	1.17 ± 0.052	1.208 ± 0.0062

An excerpt of these results, as comma-separated lines:
Target,NP40-soluble protein abundance (concentration: 0.1mM),NP40-soluble protein abundance (concentration: 0.5mM),NP40-soluble protein abundance (concentration: 1mM),NP40-soluble protein abundance (concentration: 2mM),NP40-soluble protein abundance (concentration: 4mM),NP40-soluble protein abundance (concentration: 6mM),NP40-soluble protein abundance (concentration: 8mM),NP40-soluble protein abundance (concentration: 10mM)
NT5DC1 (UniProt Q5TFE4),1.06 ± 0.073,1.08 ± 0.1,0.943 ± 0.065,0.934 ± 0.14,0.895 ± 0.097,0.909 ± 0.057,0.881 ± 0.07,0.888 ± 0.089
UniProt Q86V88 and related entries,0.975 ± 0.052,0.901 ± 0.079,0.953 ± 0.11,0.872 ± 0.064,0.869 ± 0.048,0.839 ± 0.089,0.858 ± 0.058,0.88 ± 0.078
